According to patent US10251944B2, “Cancer vaccines” (Pfizer Inc., priority 2016, dated 2019):
Where “and” joins values, the source holds several entries; their conditions need not be identical. Equal entries are not always repeated. The source gives many values for each of these; only a part stands here.

Test system: TUBO tumor cells
Experiment: Subcutaneous TUBO tumor growth in BALB-neuT mice
Type: in vivo
Parameters: key: tumor volume in mm3
Details: with control vaccine and isotype control monoclonal antibody, in mm³
Protocol: BALB-neuT mice were implanted on study day 0 with TUBO tumor cells by subcutaneous injection. Mice were dosed with 200 mg/Kg of 3-(5-fluoro-1H-indol-3-yl)pyrrolidine-2,5-dione (IDO1 inhibitor) or vehicle twice daily from study day 7 using oral gavage. Comparator groups were sham dosed with vehicle from study day 7 onwards. Appropriated mice were immunized on study day 10 with 1e10 Viral Particles of an adenovirus vector engineered to express rat HER2 (rHER2) (rHER2 vaccine) or vector lacking the rHER2 transgene (control vaccine), by intramuscular injection. Subsequently, 250 ug of an anti-CTLA4 antibody (murine monoclonal antibody to CTLA-4, clone 9D9) or an IgG2 isotype control monoclonal antibody was injected subcutaneously in close proximity to lymph nodes draining the site of adenovirus vector injection. Every two weeks thereafter, mice were immunized with 100 ug of a DNA plasmid encoding rHER2 (rHER2 vaccine) or a DNA plasmid lacking the rHER2 transgene (control vaccine) by electroporation. Subsequent to the DNA plasmid administration, 250 ug of the anti-CTLA4 antibody was injected subcutaneously in close proximity to lymph nodes draining the site of DNA plasmid injection. To track tumor progression, subcutaneous tumor volumes were measured twice a week throughout the study. Animals with subcutaneous tumor volumes that reached 2000 mm3 or displaying irreversible signs of disease were euthanized.

In the case of `O=C1CC(c2c[nH]c3ccc(F)cc23)C(=O)N1` (centres unmarked) [001 inhibitor, 3-(5-fluoro-1H-indol-3-yl)pyrrolidine-2,5-dione], the Subcutaneous tumor volumes (Study Day 7, individual animals, listed as IDO1 inhibitor) was 27.80 and 21.87 and 32.40 and 18.45 and 21.99 and 36.46 and 21.11 and 15.78 and 34.61 and 12.22 and 14.78 and 20.72 and 28.62, the Subcutaneous tumor volumes (Study Day 11, individual animals, listed as IDO1 inhibitor) was 50.27 and 28.63 and 52.20 and 24.65 and 50.36 and 46.02 and 29.32 and 42.34 and 66.59 and 21.18 and 19.13 and 51.22 and 33.59 and the Subcutaneous tumor volumes (Study Day 14, individual animals, listed as IDO1 inhibitor) was 66.16 and 35.08 and 54.92 and 44.31 and 85.94 and 39.75 and 31.22 and 43.83 and 99.08 and 27.42 and 36.76 and 53.21 and 62.59. For the same compound, the Subcutaneous tumor volumes (Study Day 42, individual animals, listed as IDO1 inhibitor) was 340.52 and 268.88 and 441.62 and 676.89, the Subcutaneous tumor volumes (Study Day 46, individual animals, listed as IDO1 inhibitor) was 660.63 and 604.23 and 818.67 and 719.57 and 909.66 and 696.77 and 782.22 and 933.81 and 997.91 and 431.11 and 345.63 and 682.81 and 1060.91 and the Subcutaneous tumor volumes (Study Day 49, individual animals, listed as IDO1 inhibitor) was 685.30 and 629.55 and 940.30 and 942.51 and 1045.76 and 917.68 and 1138.52 and 1124.52 and 1219.32 and 609.28 and 470.15 and 807.07 and 1164.50. The Subcutaneous tumor volumes (Study Day 53, individual animals, listed as IDO1 inhibitor) was 864.42 and 792.50 and 1373.25 and 1139.13 and 1614.31 and 1073.56 and 1288.73 and 1449.44 and 1275.84 and 735.98 and 547.89 and 1167.81 and 1618.54, the Subcutaneous tumor volumes (Study Day 56, individual animals, listed as IDO1 inhibitor) was 943.28 and 1128.21 and 1630.88 and 1431.28 and 1471.68 and 1323.69 and 1631.81 and 1937.45 and 2064.17 and 952.77 and 893.91 and 1714.64 and 1754.98 and the Subcutaneous tumor volumes (Study Day 60, individual animals, listed as IDO1 inhibitor) was 1384.35 and 1450.47 and 1946.29 and 1653.35 and 1673.55 and 1107.86 and 928.10 and 1923.35 and 1918.84. For the same compound, the Subcutaneous tumor volumes (Study Day 63, individual animals, listed as IDO1 inhibitor) was 1600.66 and 1652.48 and 2089.13 and 1682.01 and 1426.67 and 938.92, the Subcutaneous tumor volumes (Study Day 66, individual animals, listed as IDO1 inhibitor) was 1776.61 and 1985.40 and 1982.89 and 1416.50 and 1198.20 and the Subcutaneous tumor volumes (Study Day 70, individual animals, listed as IDO1 inhibitor) was 2186.37 and 1974.53 and 1804.46. The Subcutaneous tumor volumes (Study Day 74, individual animals) was 1816.96 and the Subcutaneous tumor volumes (Study Day 77, individual animals) was 2039.55.
